Measurements taken from patent US8541598B2, “Biodegradable solvents for the chemical industry” (Dublin City University, priority 2007, dated 2013).

How the values were obtained:
activated sludge = assay: CO2 Headspace test (ISO 14593), ultimate aerobic biodegradability; conditions: 40 mg L^-1
[1] = system: wastewater microorganisms; conditions: after 28 days, literature, cited from earlier work

Structure (SMILES) | % Biodegradation (activated sludge; test time 0 days) [%] | % Biodegradation (activated sludge; test time 7 days) [%] | % Biodegradation (activated sludge; test time 15 days) [%] | % Biodegradation (activated sludge; test time 21 days) [%] | % Biodegradation (activated sludge; test time 28 days) [%] | further results
CCCCOCCOC(=O)C[n+]1ccn(C)c1C [KG44] | 0 | 53 | 54 | 62 |  | 
CCCCCOC(=O)Cn1cc[n+](C)c1.[Br-] [KG17, 3-Methyl-1-(pentoxycarbonylmethyl) imidazolium bromide] |  |  |  |  |  | biodegradation, Closed Bottle Test [1]: 32%
COCCN(CCOC)C(=O)C[n+]1ccn(C)c1 [KG405] | 0 | 26 | 30 | 29 | 29 | 
CCCCn1cc[n+](C)c1.F[B-](F)(F)F [BmimBF4] |  |  |  |  |  | biodegradation, Closed Bottle Test [1]: poorly biodegradable; biodegradation, Closed Bottle Test ([1]; listed as bmimBF4): negligible
CCCCn1cc[n+](C)c1.F[P-](F)(F)(F)(F)F [BmimPF6] |  |  |  |  |  | biodegradation, Closed Bottle Test [1]: poorly biodegradable; biodegradation, Closed Bottle Test ([1]; listed as bmimPF6): negligible
CCCCOC(=O)C[n+]1ccn(C)c1 [KG34, 3-methyl-1-(butoxycarbonylmethyl)imidazolium octylsulfate] | 0 | 45 | 54 | 56 | 59 | 
COCCOCCOC(=O)C[n+]1ccn(C)c1C [KG45, 2,3-dimethyl-1-(2-[2-methoxyethoxy]ethoxycarbonylmethyl)imidazolium octylsulfate] | 0 | 50 | 52 | 54 | 55 | 
COCCOCCOC(=O)C[n+]1ccn(C)c1 [KG40, 3-methyl-1-(2-[2-methoxyethoxy]ethoxycarbonylmethyl)imidazolium octylsulfate] | 0 | 32 | 56 | 58 | 58 | 
COCCOC(=O)C[n+]1ccn(C)c1 [KG36, 3-methyl-1-(2-[2-methoxy]ethoxycarbonylmethyl)imidazolium octylsulfate] | 0 | 54 | 59 | 59 | 59 | 
CCOCCOC(=O)C[n+]1ccn(C)c1 [KG37, 3-methyl-1-(2-[2-ethoxy]ethoxycarbonylmethyl)imidazolium octylsulfate] | 0 | 54 | 57 | 59 | 57 | 
CCCCOCCOCCOC(=O)C[n+]1ccn(C)c1 [KG43, 3-methyl-1-(2-[2-butoxyethoxy]ethoxycarbonylmethyl)imidazolium octylsulfate] | 0 | 56 | 61 | 64 |  | 
Cn1cc[n+](CC(=O)N2CCCC2)c1 [KG403, 3-methyl-1-(pyrrolidinylcarbonylmethyl)imidazolium octylsulfate, reference compound] | 0 | 27 | 32 | 36 | 36 | 
Cc1n(C)cc[n+]1CC(=O)N1CCCC1 [KG404, 2,3-dimethyl-1-(pyrrolidinylcarbonylmethyl)imidazolium octylsulfate, reference compound] | 0 | 26 | 30 | 35 | 35 | 
CCCCCOC(=O)C[n+]1ccn(C)c1 [KG35, 3-methyl-1-(pentoxycarbonylmethyl)imidazolium octylsulfate] | 0 | 52 | 59 | 60 |  | 
CCOCCOCCOC(=O)C[n+]1ccn(C)c1 [KG41, 3-methyl-1-(2-[2-ethoxyethoxy]ethoxycarbonylmethyl)imidazolium octylsulfate] | 0 | 51 | 56 | 56 | 56 | 
CCCCOCCOC(=O)C[n+]1ccn(C)c1 [KG39, 3-methyl-1-(2-[2-butoxy]ethoxycarbonylmethyl)imidazolium octylsulfate] | 0 | 53 | 59 | 60 |  | 
CCCCCCCCCCCCOS(=O)(=O)[O-].[Na+] [SDS, Sodium n-dodecyl sulfate, reference compound] | 0 |  |  |  |  | % Biodegradation (activated sludge; test time 7 days, listed as SDS Ref, sulfate): 81%; % Biodegradation (activated sludge; test time 7 days, sulfate): 78% and 74%; % Biodegradation (activated sludge; test time 15 days, listed as SDS Ref, sulfate): 85%; % Biodegradation (activated sludge; test time 15 days, sulfate): 87% and 81%; % Biodegradation (activated sludge; test time 21 days, listed as SDS Ref, sulfate): 90%; % Biodegradation (activated sludge; test time 21 days, sulfate): 90% and 86%; % Biodegradation (activated sludge; test time 28 days, listed as SDS Ref, sulfate): 92%; % Biodegradation (activated sludge; test time 28 days, sulfate): 90% and 85%
CCCOCCOCCOC(=O)C[n+]1ccn(C)c1 [KG42, 3-methyl-1-(2-[2-propoxyethoxy]ethoxycarbonylmethyl)imidazolium octylsulfate] | 0 | 42 | 62 | 63 |  | 
CCCOCCOC(=O)C[n+]1ccn(C)c1 [KG38, 3-methyl-1-(2-[2-propoxy]ethoxycarbonylmethyl)imidazolium octylsulfate] | 0 | 51 | 58 | 61 |  | 

Several values for one entry are separate records, joined by “and”; a condition that tells them apart may be missing. Equal values may be shown once. Read-outs that look alike come from different tables or passages of the source.
